## Cleaved PARP after 72 h of treatment

Drugs:
everolimus: CO[C@H]1C[C@@H]2CC[C@@H](C)[C@@](O)(O2)C(=O)C(=O)N2CCCC[C@H]2C(=O)O[C@H]([C@H](C)C[C@@H]2CC[C@@H](OCCO)[C@H](OC)C2)CC(=O)[C@H](C)/C=C(\C)[C@@H](O)[C@@H](OC)C(=O)[C@H](C)C[C@H](C)/C=C/C=C/C=C/1C at 0.1 µM
GW0742: Cc1cc(SCc2sc(-c3ccc(C(F)(F)F)c(F)c3)nc2C)ccc1OCC(=O)O at 10 µM
STA-4783: CN(NC(=O)CC(=O)NN(C)C(=S)c1ccccc1)C(=S)c1ccccc1 at 0.03 µM
palbociclib: CC(=O)c1c(C)c2cnc(Nc3ccc(N4CCNCC4)cn3)nc2n(C2CCCC2)c1=O at 0.2 µM
MK-1775: C=CCn1c(=O)c2cnc(Nc3ccc(N4CCN(C)CC4)cc3)nc2n1-c1cccc(C(C)(C)O)n1 at 0.1 µM
OSI-906: C[C@]1(O)C[C@@H](c2nc(-c3ccc4ccc(-c5ccccc5)nc4c3)c3c(N)nccn32)C1 at 2 µM
T0901317: O=S(=O)(c1ccccc1)N(CC(F)(F)F)c1ccc(C(O)(C(F)(F)F)C(F)(F)F)cc1 at 7 µM
tamatinib: COc1cc(Nc2ncc(F)c(Nc3ccc4c(n3)NC(=O)C(C)(C)O4)n2)cc(OC)c1OC at 2 µM
cediranib: COc1cc2c(Oc3ccc4[nH]c(C)cc4c3F)ncnc2cc1OCCCN1CCCC1 at 2 µM
erlotinib: C#Cc1cccc(Nc2ncnc3cc(OCCOC)c(OCCOC)cc23)c1 at 4 µM
ABT-263: CC1(C)CCC(c2ccc(Cl)cc2)=C(CN2CCN(c3ccc(C(=O)NS(=O)(=O)c4ccc(N[C@H](CCN5CCOCC5)CSc5ccccc5)c(S(=O)(=O)C(F)(F)F)c4)cc3)CC2)C1 at 2 µM
fingolimod: CCCCCCCCc1ccc(CCC(N)(CO)CO)cc1 at 10 µM
LFM-A13: C/C(O)=C(\C#N)C(=O)Nc1cc(Br)ccc1Br at 10 µM
pazopanib: Cc1ccc(Nc2nccc(N(C)c3ccc4c(C)n(C)nc4c3)n2)cc1S(N)(=O)=O at 2 µM
PD173074: CCN(CC)CCCCNc1ncc2cc(-c3cc(OC)cc(OC)c3)c(NC(=O)NC(C)(C)C)nc2n1 at 0.5 µM
GSK0660: COC(=O)c1sccc1S(=O)(=O)Nc1ccc(Nc2ccccc2)cc1OC at 5 µM
L-779450: Oc1cc(-c2nc(-c3ccccc3)[nH]c2-c2ccncc2)ccc1Cl at 1 µM
vismodegib: CS(=O)(=O)c1ccc(C(=O)Nc2ccc(Cl)c(-c3ccccn3)c2)c(Cl)c1 at 5 µM
GW9662: O=C(Nc1ccccc1)c1cc([N+](=O)[O-])ccc1Cl at 10 µM
KU-55933: O=c1cc(-c2cccc3c2Sc2ccccc2S3)oc(N2CCOCC2)c1 at 5 µM

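Human melanoma cell lines in 1,536-well plates were treated with a pair of drugs for 72 h, then fixed, stained and imaged. Each value is the cleaved-PARP-positive fraction of nuclei relative to DMSO-treated wells, in %, so that 100 equals the control and higher values mean more apoptosis. Every drug was used at one fixed concentration, the higher of two screened. These are primary screening values without error estimates. The marker varies much from line to line, for technical or biological reasons.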 This is part of the screen, not chosen by result. An entry leaves out what has no value listed here. A dash means that no value is listed here.

{"pair": "L-779450 + erlotinib", "MZ2-MEL": 44.5, "IPC-298": 89.1, "WM3526": 517}
{"pair": "GW0742 + cediranib", "MZ2-MEL": 20.4, "IPC-298": 43.8, "WM3526": 112}
{"pair": "KU-55933 + ABT-263", "MZ2-MEL": 300, "IPC-298": 199, "WM3526": 474}
{"pair": "ABT-263 + erlotinib", "MZ2-MEL": 163, "IPC-298": 252, "WM3526": 358}
{"pair": "palbociclib + fingolimod", "MZ2-MEL": 22900, "IPC-298": 448, "WM3526": 518}
{"pair": "erlotinib + vismodegib", "MZ2-MEL": 102, "IPC-298": 345, "WM3526": 265}
{"pair": "MK-1775 + GW9662", "MZ2-MEL": 199, "IPC-298": 101, "WM3526": 192}
{"pair": "KU-55933 + vismodegib", "MZ2-MEL": 98.7, "IPC-298": 44.4, "WM3526": 76.9}
{"pair": "L-779450 + PD173074", "IPC-298": 105, "WM3526": 261}
{"pair": "palbociclib + T0901317", "IPC-298": 204, "WM3526": 25.1}
{"pair": "GW0742 + pazopanib", "MZ2-MEL": 39.1, "IPC-298": 126, "WM3526": 205}
{"pair": "LFM-A13 + GW0742", "MZ2-MEL": 77.2, "IPC-298": 86.8, "WM3526": 41.0}
{"pair": "palbociclib + OSI-906", "IPC-298": 199, "WM3526": 63.9}
{"pair": "T0901317 + pazopanib", "MZ2-MEL": 107, "IPC-298": 104, "WM3526": 116}
{"pair": "OSI-906 + everolimus", "MZ2-MEL": 365, "IPC-298": 736, "WM3526": 457}
{"pair": "cediranib + LFM-A13", "MZ2-MEL": 78.0, "IPC-298": 92.0, "WM3526": 80.2}
{"pair": "OSI-906 + STA-4783", "MZ2-MEL": 81.4, "IPC-298": 102, "WM3526": 145}
{"pair": "GW0742 + tamatinib", "MZ2-MEL": 194, "IPC-298": 94.6, "WM3526": 127}
{"pair": "L-779450 + fingolimod", "MZ2-MEL": 12600, "IPC-298": 122, "WM3526": 3640}
{"pair": "ABT-263 + LFM-A13", "MZ2-MEL": 318, "IPC-298": 193, "WM3526": 384}
{"pair": "T0901317 + PD173074", "MZ2-MEL": 22.1, "IPC-298": 24.5, "WM3526": 92.5}
{"pair": "GSK0660 + STA-4783", "MZ2-MEL": 41.2, "IPC-298": 76.2, "WM3526": 166}
{"pair": "MK-1775 + palbociclib", "MZ2-MEL": 88.3, "IPC-298": 117, "WM3526": 119}
{"pair": "tamatinib + erlotinib", "MZ2-MEL": 87.1, "IPC-298": 73.4, "WM3526": 226}
{"pair": "KU-55933 + GSK0660", "MZ2-MEL": 119, "IPC-298": 99.2, "WM3526": 67.5}

2 of the entries, repeated:

| Pair | MZ2-MEL | IPC-298 | WM3526 |
|---|---|---|---|
| T0901317 + pazopanib | 107 | 104 | 116 |
| palbociclib + T0901317 | - | 204 | 25.1 |

From a melanoma drug combination screen (doi:10.1371/journal.pone.0140310); values rounded.